Data on 1 compound can be found in ChEMBL document CHEMBL1150033, “The squalestatins: effects of changes at the allylic centre in the C1 sidechain” (Bioorg Med Chem Lett, 1994).

This test has as its target T1, Squalene synthase (Rattus norvegicus, UniProt Q02769).
T1 sequence (Q02769 whole entry): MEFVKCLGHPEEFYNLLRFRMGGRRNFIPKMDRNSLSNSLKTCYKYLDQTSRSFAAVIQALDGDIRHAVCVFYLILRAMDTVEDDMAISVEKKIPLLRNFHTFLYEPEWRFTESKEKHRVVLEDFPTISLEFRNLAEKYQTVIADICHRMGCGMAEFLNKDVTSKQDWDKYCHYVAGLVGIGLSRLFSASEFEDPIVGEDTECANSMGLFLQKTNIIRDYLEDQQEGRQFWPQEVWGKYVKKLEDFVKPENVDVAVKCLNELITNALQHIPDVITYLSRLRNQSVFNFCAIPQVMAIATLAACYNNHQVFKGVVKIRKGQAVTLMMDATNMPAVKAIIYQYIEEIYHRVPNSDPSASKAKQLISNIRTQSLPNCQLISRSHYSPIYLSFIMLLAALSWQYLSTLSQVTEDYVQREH
The test can be described thus: Inhibitory concentration against mammalian Squalene synthase.

In turn, `C=C(CC[C@]12O[C@H](C(=O)O)[C@@](O)(C(=O)O)[C@](C(=O)O)(O1)[C@H](O)[C@H]2O)[C@@H](OC(C)=O)[C@H](C)Cc1ccccc1` showed an IC50 of 26 nM.
